Results reported in PubChem BioAssay AID1439 (NMMLSC, 2008).
Screen size: about 220,000 compounds; about 770 (0.35%) were called active. The inconclusive results got no clear call from the source; some entries with a clear call stand among them for comparison. Cut-off read from the data, not from the text of the source: active = binding response below about 49% or above about 150%; inconclusive = no clear call, values can overlap the other calls; inactive = in between.

By UniProt entry, the sequences of proteins in these tests, tags left out.
UniProt P09471, whole entry, looked up: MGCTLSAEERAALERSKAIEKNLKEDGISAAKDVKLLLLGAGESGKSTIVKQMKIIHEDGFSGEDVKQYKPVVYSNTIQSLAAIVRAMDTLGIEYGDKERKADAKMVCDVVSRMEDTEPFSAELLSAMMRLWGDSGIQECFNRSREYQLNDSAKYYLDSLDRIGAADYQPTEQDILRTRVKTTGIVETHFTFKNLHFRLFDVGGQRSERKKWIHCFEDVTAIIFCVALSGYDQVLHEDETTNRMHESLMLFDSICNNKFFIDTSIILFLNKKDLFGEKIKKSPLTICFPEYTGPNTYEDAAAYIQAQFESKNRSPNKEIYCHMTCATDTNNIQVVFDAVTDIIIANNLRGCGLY

Target: Guanine nucleotide-binding protein G(o) subunit alpha (Homo sapiens) (UniProt P09471)
Test: RGS7-Galphao binding modulators, primary screen, biochemical, multiplexed bead flow cytometry (AID 1439);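 note: fluorescent Galphao held in activated GDP-AlF4 state binding bead-coupled RGS7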
Conditions: at 10 µM, actives lie on both sides

SMILES | binding response (% of control)
COc1ccc(OC(=O)c2cnc3n(c2=O)CCS3)cc1 | inconclusive: 152%
O=C(COC(=O)/C=C/c1ccc(S(=O)(=O)N2CCOCC2)cc1)NCc1ccc2c(c1)OCO2 | inconclusive: 112%
O=C(CCc1ccc(O)cc1)N/N=C/c1coc2ccccc2c1=O | inconclusive: 120%
O=C(CCN1CCCCC1)Nc1ccc(Br)cc1 | inactive: 108%
O=C(O)CC(NNC(=O)c1ccccc1)C(=O)Nc1ccc([N+](=O)[O-])cc1 (configuration not stated) | inconclusive: 104%
O=C1c2ccccc2C(=O)N1CC(O)CNc1ccc(Br)cc1 (configuration not stated) | inactive: 102%
Fc1ccc(CN2CCCN(C(=S)Nc3ccc(F)cc3)CC2)cc1 | inconclusive: 70.6%
O=C(NCCc1csc(-c2ccccc2)n1)c1ccccc1F | inconclusive: 62.1%
Cc1ccccc1OCC(O)Cn1c(=N)n(Cc2ccccc2)c2ccccc21 (configuration not stated) | inconclusive: 122%
COC(=O)C1=C(C)NC(C)=C(C(=O)OC)C1c1ccc(-c2cccc([N+](=O)[O-])c2)o1 | inconclusive: 47.1%
NC(=O)[C@H]1CC2(CC(c3cccc(NC(=O)CC(c4ccccc4)c4ccccc4)c3)=NO2)CN1C(=O)C(c1ccccc1)c1ccccc1 (some centres not stated) | inconclusive: 93.2%
CC1(c2ccccc2)NC(=O)N(CC(=O)NCCC2=CCCCC2)C1=O (configuration not stated) | inactive: 101%
CCCCC1=CC2=C(c3ccco3)C(=O)C(C)(OC(=O)c3ccc(OC)cc3)C(=O)C2=CN1CCc1ccccn1 (configuration not stated) | inconclusive: 113%
CS(=O)(=O)c1ccc(C(=O)Nc2ccccc2N2CCOCC2)c(Cl)c1 | inconclusive: 88.4%
O=C(CCc1ccccc1)Nc1nc2c(F)cc(F)cc2s1 | inconclusive: 90.8%
Nc1nc(-c2ccc(Cl)cc2)nn1C(=O)c1ccco1 | inactive: 99.2%
CCCc1nc2c(c(=O)c3ccccc3n2C)c(=O)n1-c1cc(C)cc(C)c1 | inconclusive: 91.9%
CCOC(=O)Cc1nn(Cc2nc(-c3ccc(C)cc3)cs2)c(=O)c2ccccc12 | inconclusive: 93%
CC(C)(C)c1cc(-c2ccccc2)n[nH]1 | inconclusive: 103%
Cc1ccc(NS(=O)(=O)c2cc3c4c(cccc4c2)C(=O)NC3=O)cc1C | inconclusive: 96.5%
COc1cc2c(cc1OC)C(C)N(C(=O)c1c(C)noc1C)CC2 (configuration not stated) | inconclusive: 27.1%
COc1cc(O)c(C(CCN2CCCC2)c2cc(OC)c(OC)c(OC)c2)c(OC)c1 (configuration not stated) | inconclusive: 144%

Rewritten as labelled records: entries from further up.
Cc1ccccc1OCC(O)Cn1c(=N)n(Cc2ccccc2)c2ccccc21 (configuration not stated)
  binding response (% of control): inconclusive: 122%
Cc1ccc(NS(=O)(=O)c2cc3c4c(cccc4c2)C(=O)NC3=O)cc1C
  binding response (% of control): inconclusive: 96.5%
COc1cc2c(cc1OC)C(C)N(C(=O)c1c(C)noc1C)CC2 (configuration not stated)
  binding response (% of control): inconclusive: 27.1%
COc1cc(O)c(C(CCN2CCCC2)c2cc(OC)c(OC)c(OC)c2)c(OC)c1 (configuration not stated)
  binding response (% of control): inconclusive: 144%

The list continues:

SMILES | binding response (% of control)
CC(C)CCN(C(=O)CNC(=O)c1cccs1)C(C(=O)NC1CCCCC1)c1cccnc1 (configuration not stated) | inconclusive: 93.7%
O=C(COC(=O)c1ccccc1)Nc1cccc(S(=O)(=O)N2CCOCC2)c1 | inconclusive: 105%
O=C1NCCN(Cc2ccc(F)cc2)C1CC(=O)N1CC=C(c2ccccc2)CC1 (configuration not stated) | inconclusive: 73.6%
O=C(C1=C(O)C(=O)N(c2ncccn2)C1c1ccc(F)cc1)c1ccco1 (configuration not stated) | inconclusive: 102%
OCCN(CC#CC(O)(c1ccccc1)c1cccc(F)c1)CCO (configuration not stated) | inconclusive: 19.2%
COC(=O)c1c(C)oc(C)c1S(=O)(=O)NCc1ccc(Cl)cc1Cl | inconclusive: 99.5%
CCC(=O)N/C(N)=N/c1nc2ccccc2o1 | inconclusive: 45.9%
CC(=O)OCC1(C)CN(c2ccccc2)NC1=O (configuration not stated) | inconclusive: 81.9%
O=C(COC(=O)c1cc([N+](=O)[O-])ccc1NCCO)c1ccccc1 | inactive: 82.3%
Cc1onc(-c2ccccc2Cl)c1NC(=O)NCc1cccs1 | inconclusive: 117%
O=C(O)c1cccc(-n2cccc2/C=C2\NC(=O)N(Cc3ccc(F)cc3)C2=O)c1 | inconclusive: 74.3%
COc1ccc(C(=O)C2CCCN(Cc3ccc4nonc4c3)C2)c(C)c1 (configuration not stated) | inconclusive: 39.6%
Cc1ccc(NC(=O)CSc2nnc(CNC(=O)c3cccs3)o2)c(C)c1 | inconclusive: 91.4%
Cc1ccc(S(=O)(=O)N2CCCCC2)cc1NC(=O)CSc1nncn1-c1ccccc1 | inconclusive: 96.3%
COc1ccc(NS(=O)(=O)c2ccc(C)cc2)c([N+](=O)[O-])c1 | inconclusive: 468%
Cn1c(N)c(C(=O)COC(=O)c2ccc(S(=O)(=O)N3CCCCC3)cc2)c(=O)n(C)c1=O | inconclusive: 101%
Cc1ccc(Cn2ccc(NC(=O)C3C4CCC(C4)C3C(=O)O)n2)cc1 (configuration not stated) | inactive: 99.7%
Cc1ccc(NC(=O)c2sc(N)nc2-c2ccc([N+](=O)[O-])cc2)c(C)c1 | inconclusive: 80.5%
COc1ccc(-c2[nH]ncc2CN2CCN(c3ccc(F)cc3)CC2)cc1 | inconclusive: 88.6%
Cc1nnc(NC(=O)CCN2C(=O)/C(=C\c3ccccc3)SC2=S)s1 | inconclusive: 110%
COc1ccc(NC(=S)N/C(=N/S(=O)(=O)c2ccc(C)cc2)c2ccccc2)cc1 | inconclusive: 106%
CSCC[C@H](NC(=O)Nc1ccc(Oc2ccccc2)cc1)C(=O)O | inconclusive: 84.5%

SMILES | binding response (% of control)
Cc1ccnc(NS(=O)(=O)c2cccc([N+](=O)[O-])c2)c1 | inconclusive: 96.7%
Cc1[nH]c2ccccc2c1SCC(=O)NNC(=O)Nc1ccc(OC(F)(F)F)cc1 | inconclusive: 93.3%
C=CCc1c(C)[nH]c2c(OC)cccc2c1=S | inactive: 106%
Cc1ccc(C)c(-n2c(-c3ccncc3)n[nH]c2=S)c1 | inconclusive: 99.8%
COc1ccccc1N1CCN(CC(=O)c2c(N)n(C)c(=O)n(C)c2=O)CC1 | inconclusive: 98.6%
O=C(NCc1ccccn1)c1ccc2c(c1)N(Cc1ccccc1)CCS2 | inconclusive: 320%
O=[N+]([O-])CC(=Nc1ccc(F)cc1)N/N=C\c1oc(O)c2ccccc12 | inconclusive: 105%
CC(=O)N1c2ccc(Cl)cc2C2OCCC2C1c1ccco1 (configuration not stated) | inconclusive: 78.7%
CCN1C(=O)CC(NCc2ccc(S(N)(=O)=O)cc2)C1=O (configuration not stated) | inconclusive: -432%
CN1C(=O)C2(Nc3ccccc3-c3nc4ccccc4n32)c2ccccc21 (configuration not stated) | inactive: 101%
O=C(Cn1nnc(-c2ccccc2)n1)N/N=C/c1ccco1 | inactive: 95.9%
N#C/C(C(N)=O)=C1/SC(Cc2ccc(F)cc2)C(=O)N1c1ccccc1 (configuration not stated) | inconclusive: 99%
CN1C[C@@H]2C(c3ccccc3)C3(c4ccc(C#N)cc4)CC2(C3)[C@H]1c1ccccc1 (some centres not stated) | inconclusive: 95.2%
CCOC(=O)N1CCN(C(=O)C(=O)NN)CC1 | inactive: 99.2%
C#CCNC(=O)C1=C[C@H](C)[C@@H](CCCO)[C@H](OCC)O1 | inactive: 95.3%
CCCCCCCCc1nnc(N)s1 | inconclusive: 115%
NC(=O)c1cnn(-c2ccc3ccccc3c2)c1N | inconclusive: 115%
N#Cc1ccc(C23CC4(C2)[C@H](CN(CC2CCCCC2)[C@@H]4c2ccccc2)C3c2ccc(C(F)(F)F)cc2)cc1 (some centres not stated) | inconclusive: 94.7%
COc1ccccc1/C=C/C=C1\Oc2c(ccc(O)c2CN2CCN(CCO)CC2)C1=O | active: 246% [activator]
O=C(O)c1cccc(NC2=C(N3CCOCC3)C(=O)c3ccccc3C2=O)c1 | inconclusive: 122%
Cc1c(CN(C)C(=O)c2ccc(Br)o2)cnn1C | inactive: 95.4%
COc1cc(-c2cc(-c3nnco3)c3ccccc3n2)cc(OC)c1OC | inconclusive: 124%

SMILES | binding response (% of control)
COc1ccc(C(=O)c2ccccc2)c(OCC(=O)NC2CC2)c1 | inactive: 98.9%
CCN(CC)S(=O)(=O)c1cccc(NC(=O)COC(=O)c2cccs2)c1 | inconclusive: 110%
CC1(C)NC(=O)N(CC(=O)OCC(=O)Nc2sccc2C#N)C1=O | inconclusive: 92.6%
CCNC(=O)c1ccccc1NC(=O)c1cccc(S(=O)(=O)N2CCC(C)CC2)c1 | inactive: 98.8%
COc1cc(C)c(NC(=O)C(=S)NCCc2ccccc2)cc1C | inconclusive: 112%
CCOC(=O)CCC(=O)Nc1cccc([N+](=O)[O-])c1 | inactive: 103%
Cc1ccc(NC(=O)Cn2cnc3ccccc32)cc1C | inconclusive: 93%
Cc1ccc(-c2cc(C(=O)OCC(=O)N(C)C3CCS(=O)(=O)C3)c3ccccc3n2)c(C)c1 (configuration not stated) | inconclusive: 79.5%
N#C/C(=C\N1CCOCC1)S(=O)(=O)c1ccc(Cl)cc1 | inconclusive: 104%
CCOc1cccc(NC(=O)c2cnccc2C(F)(F)F)c1 | inconclusive: 97.4%
O=C(NCc1ccco1)Nc1cccc([N+](=O)[O-])c1 | inconclusive: 82.2%
COc1cccc(N2C(=O)CC(N3CCc4ccccc4C3)C2=O)c1 (configuration not stated) | inconclusive: 134%
COc1ccc(C(=O)NN2C(=S)N(c3ccc(OC)cc3)C(=O)C2CC(N)=O)cc1 (configuration not stated) | inconclusive: 109%
Cc1ccccc1-n1c(C)nnc1SCc1cc(=O)oc2ccc3ccccc3c12 | inactive: 104%
N#CCC(=O)NNc1c([N+](=O)[O-])cc(C(F)(F)F)cc1[N+](=O)[O-] | inconclusive: 86.4%
COC(=O)NC1(C(=O)O)CCCC1 | inconclusive: 86.5%
O=C(CCNS(=O)(=O)c1cccc2nonc12)NC1CCCCC1 | inconclusive: 97.9%
O=C(CN(Cc1ccccc1)S(=O)(=O)c1ccc2c(c1)OCCO2)Nc1ccc2c(c1)OCCO2 | active: 261% [activator]
COC(=O)CC1=C(C(=O)OC)C(c2ccc3c(c2)OCO3)C(C#N)=C(N)O1 (configuration not stated) | inconclusive: 117%
O=c1c2ccccc2nnn1CSc1nc2ccccc2[nH]1 | inactive: 100%
O=C(Nc1ccc2[nH]c(=O)[nH]c2c1)c1cc(F)c(F)cc1Cl | inconclusive: 101%
